Measured values published in patent US9102678B2, “Compounds and methods for inhibiting mitotic progression” (Millennium Pharmaceuticals, Inc., priority 2004, dated 2015).
Some results were stated once for a whole list of compounds, not compound by compound.

The chains behind the UniProt entries cited, without tags or fusion partners. Where a name states a change or a piece, a line headed by the entry shows the natural chain unless it says otherwise.
UniProt P97477: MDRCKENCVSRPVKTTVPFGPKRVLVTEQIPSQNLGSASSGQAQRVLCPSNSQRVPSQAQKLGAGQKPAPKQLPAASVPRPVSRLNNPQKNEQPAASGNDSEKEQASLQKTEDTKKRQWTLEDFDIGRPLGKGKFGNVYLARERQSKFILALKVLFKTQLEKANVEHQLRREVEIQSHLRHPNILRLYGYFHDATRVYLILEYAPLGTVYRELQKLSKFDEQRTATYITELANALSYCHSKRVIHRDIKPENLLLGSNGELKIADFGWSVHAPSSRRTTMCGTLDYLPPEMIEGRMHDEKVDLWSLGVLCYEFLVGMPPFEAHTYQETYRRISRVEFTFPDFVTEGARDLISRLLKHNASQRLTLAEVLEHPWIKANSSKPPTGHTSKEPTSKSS

Target: T1, recombinant murine Aurora A enzyme (Mus musculus, UniProt P97477)
T1 construct: hexahistidine (His6) (N); made in house; host or cells: insect cells, baculovirus (Bac-to-Bac, Invitrogen)
Assay: Aurora A DELFIA Kinase Assay
Assay type: biochemical
Settings: 250 μM ATP, threshold less than or equal to 1.0 μM
Source text: Recombinant mouse Aurora A with an amino-terminus hexahistidine tag (His-Aurora A) was expressed using a standard baculovirus vector and insect cell expression system (Bac-to-Bac®, Invitrogen).
Soluble, recombinant mouse Aurora A was purified from insect cells using Ni-NTA agarose (Qiagen) as described by the manufacturer and further purified over an S75 size exclusion column (Amersham Pharmacia Biotech).
Aurora A DELFIA® Kinase Assay
The enzymatic reaction mixture, with and without Aurora inhibitors, was incubated for 15 minutes at room temperature before termination with 100 μL of stop buffer (1% BSA, 0.05% Surfact-AMPS-20, and 100 mM EDTA). A total of 100 μL of the enzyme reaction mixture was transferred to wells of a Neutravidin-coated 96-well plate (Pierce) and incubated at room temperature for 30 minutes. The wells were washed with wash buffer (25 mM Tris, 150 mM sodium chloride, and 0.1% Tween 20) and incubated for 1 hour with 100 μL of antibody reaction mixture containing 1% BSA, 0.05% Surfact-AMPS-20, anti-phospho-PKA rabbit polyclonal antibody (1:2000, New England Biolabs), and europium labeled anti-rabbit IgG (1:2000, Perkin Elmer). The wells were washed and then the bound europium was liberated using 100 μL of Enhancement Solution (Perkin Elmer). Quantification of europium was done using a Wallac™ EnVision (Perkin Elmer).

Compound | IC50 [nM]
NCCC(=O)c1cccc(Nc2ncc3c(n2)-c2ccc(Cl)cc2C(c2c(F)cccc2F)=NC3)c1 [Compound I-358, 3-amino-1-(3-{[9-chloro-7-(2,6-difluorophenyl)-5H-pyrimido[5,4-d][2]benzazepin-2-yl]amino}phenyl)propan-1-one] | ≤ 1000
Cc1ccc2c(c1)C(c1ccccc1F)=NCc1cnc(Nc3ccc(C(=O)NCCCN4CCN(C)CC4)cc3)nc1-2 [Compound I-24, 4-[7-(2-Fluoro-phenyl)-9-methyl-5H-benzo[c]pyrimido[4,5-e]azepin-2-ylamino]-N-[3-(4-methyl-piperazin-1-yl)-propyl]-benzamide] | ≤ 1000
NC1CCN(C(=O)c2ccc(Nc3ncc4c(n3)-c3ccc(Cl)cc3C(c3ccccn3)=NC4)cc2)C1 (stereo not shown) [Compound I-299, N-{4-[(3-aminopyrrolidin-1-yl)carbonyl]phenyl}-9-chloro-7-pyridin-2-yl-5H-pyrimido[5,4-d][2]benzazepin-2-amine] | ≤ 1000
CNC1CN(C(=O)c2ccc(Nc3ncc4c(n3)-c3ccc(Cl)cc3C(c3c(F)cccc3OC)=NC4)cc2)C1 [Compound I-235, 9-chloro-7-(2-fluoro-6-methoxyphenyl)-N-(4-{[3-(methylamino)azetidin-1-yl]carbonyl}phenyl)-5H-pyrimido[5,4-d][2]benzazepin-2-amine] | ≤ 1000
CN(C)CC(=O)Nc1ccc(Nc2ncc3c(n2)-c2ccc(Cl)cc2C(c2c(F)cccc2F)=NC3)cc1 [Compound I-307, N-(4-{[9-chloro-7-(2,6-difluorophenyl)-5H-pyrimido[5,4-d][2]benzazepin-2-yl]amino}phenyl)-2-(dimethylamino)acetamide] | ≤ 1000
CCN(CC)CCN1CCN(C(=O)c2ccc(Nc3ncc4c(n3)-c3ccc(Cl)cc3C(c3ccccc3F)=NC4)cc2)CC1 [Compound I-209, 9-chloro-N-[4-({4-[2-(diethylamino)ethyl]piperazin-1-yl}carbonyl)phenyl]-7-(2-fluorophenyl)-5H-pyrimido[5,4-d][2]benzazepin-2-amine] | ≤ 1000
O=C(NCCc1ccccn1)c1ccc(Nc2ncc3c(n2)-c2ccc(Cl)cc2C(c2ccccc2F)=NC3)cc1 [Compound I-161, 4-[9-Chloro-7-(2-fluoro-phenyl)-5H-benzo[c]pyrimido[4,5-e]azepin-2-ylamino]-N-(2-pyridin-2-yl-ethyl)-benzamide] | ≤ 1000
CC(C)(N)CNC(=O)c1ccc(Nc2ncc3c(n2)-c2ccc(Cl)cc2C(c2ccccc2F)=NC3)cc1 [Compound I-131, N-(2-Amino-2-methyl-propyl)-4-[9-chloro-7-(2-fluoro-phenyl)-5H-benzo[c]pyrimido[4,5-e]azepin-2-ylamino]-benzamide] | ≤ 1000
COc1cccc(Nc2ncc3c(n2)-c2ccc(Br)cc2C(c2c(F)cccc2F)=NC3)c1 [Compound I-273, 9-bromo-7-(2,6-difluorophenyl)-N-(3-methoxyphenyl)-5H-pyrimido[5,4-d][2]benzazepin-2-amine] | ≤ 1000
O=C(O)c1csc(Nc2ncc3c(n2)-c2ccc(Cl)cc2C(c2c(F)cccc2F)=NC3)n1 [Compound I-360, 2-{[9-chloro-7-(2,6-difluorophenyl)-5H-pyrimido[5,4-d][2]benzazepin-2-yl]amino}-1,3-thiazole-4-carboxylic acid] | ≤ 1000
CC(C)(N)CNC(=O)c1ccc(Nc2ncc3c(n2)-c2ccc(Cl)cc2C(c2c(F)cccc2F)=NC3)cc1 [Compound I-260, N-(2-amino-2-methylpropyl)-4-{[9-chloro-7-(2,6-difluorophenyl)-5H-pyrimido[5,4-d][2]benzazepin-2-yl]amino}benzamide] | ≤ 1000
O=C(c1ccc(Nc2ncc3c(n2)-c2ccc(Cl)cc2C(c2ccccc2F)=NC3)cc1)N1CCN(CCN2CCOCC2)CC1 [Compound I-189, {4-[9-Chloro-7-(2-fluoro-phenyl)-5H-benzo[c]pyrimido[4,5-e]azepin-2-ylamino]-phenyl}-[4-(2-morpholin-4-yl-ethyl)-piperazin-1-yl]-methanone] | ≤ 1000
CN1CCC(N(C)C(=O)c2ccc(Nc3ncc4c(n3)-c3ccc(Cl)cc3C(c3ccccc3F)=NC4)cc2)CC1 [Compound I-128, 4-[9-Chloro-7-(2-fluoro-phenyl)-5H-benzo[c]pyrimido[4,5-e]azepin-2-ylamino]-N-methyl-N-(1-methyl-piperidin-4-yl)-benzamide] | ≤ 1000
COc1ccc(Nc2ncc3c(n2)-c2ccc(Cl)cc2C(c2ccccc2C)=NC3)cc1OC [Compound I-74, (9-Chloro-7-o-tolyl-5H-benzo[c]pyrimido[4,5-e]azepin-2-yl)-(3,4-dimethoxy-phenyl)-amine] | ≤ 1000
CN1CCN(C(=O)c2cccc(Nc3ncc4c(n3)-c3ccc(Cl)cc3C(c3ccccc3F)=NC4)c2)CC1 [Compound I-163, {3-[9-Chloro-7-(2-fluoro-phenyl)-5H-benzo[c]pyrimido[4,5-e]azepin-2-ylamino]-phenyl}-(4-methyl-piperazin-1-yl)-methanone] | ≤ 1000
CNC1CCN(C(=O)c2csc(Nc3ncc4c(n3)-c3ccc(Cl)cc3C(c3c(F)cccc3F)=NC4)n2)C1 (stereo not shown) [Compound I-367, 9-chloro-7-(2,6-difluorophenyl)-N-(4-{[3-(methylamino)pyrrolidin-1-yl]carbonyl}-1,3-thiazol-2-yl)-5H-pyrimido[5,4-d][2]benzazepin-2-amine] | ≤ 1000
CNC(=O)C1CN(C(=O)c2ccc(Nc3ncc4c(n3)-c3ccc(Cl)cc3C(c3c(F)cccc3F)=NC4)cc2)CCN1 (stereo not shown) [Compound I-310, 4-(4-{[9-chloro-7-(2,6-difluorophenyl)-5H-pyrimido[5,4-d][2]benzazepin-2-yl]amino}benzoyl)-N-methylpiperazine-2-carboxamide] | ≤ 1000
Cc1csc(Nc2ncc3c(n2)-c2ccc(C(=O)O)cc2C(c2c(F)cccc2F)=NC3)n1 [Compound I-357, 7-(2,6-difluorophenyl)-2-[(4-methyl-1,3-thiazol-2-yl)amino]-5H-pyrimido[5,4-d][2]benzazepine-9-carboxylic acid] | ≤ 1000
CN1CCN(C(=O)Cc2cccc(Nc3ncc4c(n3)-c3ccc(Cl)cc3C(c3ccccc3F)=NC4)c2)CC1 [Compound I-15, 2-{3-[9-Chloro-7-(2-fluoro-phenyl)-5H-benzo[c]pyrimido[4,5-e]azepin-2-ylamino]-phenyl}-1-(4-methyl-piperazin-1-yl)-ethanone] | ≤ 1000
COc1cccc(F)c1C1=NCc2cnc(Nc3ccc(C(=O)N(C)CCCN(C)C)cc3)nc2-c2ccc(Cl)cc21 [Compound I-225, 4-{[9-chloro-7-(2-fluoro-6-methoxyphenyl)-5H-pyrimido[5,4-d][2]benzazepin-2-yl]amino}-N-[3-(dimethylamino)propyl]-N-methylbenzamide] | ≤ 1000
COc1ccc(C2=NCc3cnc(Nc4ccc(C(=O)N5CC(C)NC(C)C5)cc4)nc3-c3ccc(Cl)cc32)c(OC)c1 (stereo not shown) [Compound I-322] | ≤ 1000
COc1cccc(Nc2ncc3c(n2)-c2ccc(C(=O)O)cc2C(c2c(F)cccc2F)=NC3)c1 [Compound I-353, 7-(2,6-difluorophenyl)-2-[(3-methoxyphenyl)amino]-5H-pyrimido[5,4-d][2]benzazepine-9-carboxylic acid] | ≤ 1000
CN1CCN(C(=O)Nc2ccc(Nc3ncc4c(n3)-c3ccc(Cl)cc3C(c3c(F)cccc3F)=NC4)cc2)CC1 [Compound I-280, 4-Methyl-piperazine-1-carboxylic acid {4-[9-chloro-7-(2,6-difluoro-phenyl)-5H-benzo[c]pyrimido[4,5-e]azepin-2-ylamino]-phenyl}-amide] | ≤ 1000
O=C(O)Cc1ccc(Nc2ncc3c(n2)-c2ccc(Cl)cc2C(c2ccccc2F)=NC3)cc1 [Compound I-126, {4-[9-Chloro-7-(2-fluoro-phenyl)-5H-benzo[c]pyrimido[4,5-e]azepin-2-ylamino]-phenyl}-acetic acid] | ≤ 1000
O=C(O)C1CNCCN1C(=O)c1ccc(Nc2ncc3c(n2)-c2ccc(Cl)cc2C(c2c(F)cccc2F)=NC3)cc1 (stereo not shown) [Compound I-219, 1-(4-{[9-chloro-7-(2,6-difluorophenyl)-5H-pyrimido[5,4-d][2]benzazepin-2-yl]amino}benzoyl)piperazine-2-carboxylic acid] | ≤ 1000
O=C(O)c1ccc(Nc2ncc3c(n2)-c2ccc(Cl)cc2C(c2ccccc2F)=NC3)cc1F [Compound I-136, 4-[9-Chloro-7-(2-fluoro-phenyl)-5H-benzo[c]pyrimido[4,5-e]azepin-2-ylamino]-2-fluoro-benzoic acid] | ≤ 1000
O=C(c1ccc(Nc2ncc3c(n2)-c2ccc(Cl)cc2C(c2ccccc2F)=NC3)cc1)N1CCN(CCCN2CCCC2)CC1 [Compound I-188, {4-[9-Chloro-7-(2-fluoro-phenyl)-5H-benzo[c]pyrimido[4,5-e]azepin-2-ylamino]-phenyl}-[4-(3-pyrrolidin-1-yl-propyl)-piperazin-1-yl]-methanone] | ≤ 1000
CC1CN(C(=O)c2ccc(Nc3ncc4c(n3)-c3ccc(Cl)cc3C(c3c(F)cccc3Cl)=NC4)cc2)CCN1 (stereo not shown) [Compound I-323, 9-chloro-7-(2-chloro-6-fluorophenyl)-N-{4-[(3-methylpiperazin-1-yl)carbonyl]phenyl}-5H-pyrimido[5,4-d][2]benzazepin-2-amine] | ≤ 1000
